In patent publication US7732416B2, “Avermectins substituted in the 4″-position having pesticidal properties” (Merial Limited, priority 2001, dated 2010):
Some entries share one result that the patent states for a list of compounds.

Columns and labels:
Assay type in all cases: in vivo
Spodoptera littoralis [1] = test: Example B1 Activity against Spodoptera littoralis (sprayed soya bean plants); conditions: 12.5 ppm spray liquor, first-stage caterpillars, 3 days
Spodoptera littoralis [2] = test: Example B2 Activity against Spodoptera littoralis, systemic (maize seedlings); conditions: maize seedlings 6 days in test solution, L1 larvae on cut leaves, 4 days
Heliothis virescens = test: Example B3 Activity against Heliothis virescens (eggs on filter paper); conditions: 0.8 ml test solution on 0- to 24-hour-old eggs, evaluation after 6 days
Plutella xylostella = test: Example B4 Activity against Plutella xylostella caterpillars (sprayed cabbage plants); conditions: 12.5 ppm spray liquor, first-stage caterpillars, 3 days
[3] = tested on: Frankliniella occidentalis; test: Example B5 Activity against Frankliniella occidentalis (bean leaf discs); conditions: bean leaf discs sprayed with test solution, mixed population, 10 days
Diabrotica balteata = test: Example B6 Activity against Diabrotica balteata (sprayed maize seedlings); conditions: 12.5 ppm spray liquor, second-stage larvae, 6 days
Tetranychus urticae = test: Example B7 Activity against Tetranychus urticae (sprayed bean plants); conditions: 12.5 ppm spray liquor, mixed population, 25° C., 6 days

Measured: reduction in the pest population

CCC(C)[C@H]1O[C@]2(C=C[C@@H]1C)C[C@@H]1C[C@@H](C/C=C(\C)[C@@H](O[C@H]3C[C@H](OC)[C@@H](O[C@H]4C[C@H](OC)[C@H](NCCC(C)CCCC(C)(C)O)[C@H](C)O4)[C@H](C)O3)C(C)/C=C/C=C3\CO[C@@H]4[C@H](O)C(C)=C[C@@H](C(=O)O1)[C@]34O)O2 (stereo partly drawn) [1.040]
more than 80%: all assays above

CCC(C)[C@H]1O[C@]2(C=C[C@@H]1C)C[C@@H]1C[C@@H](C/C=C(\C)[C@@H](O[C@H]3C[C@H](OC)[C@@H](O[C@H]4C[C@H](OC)[C@H](N(C)CC(=O)OCc5ccccc5)[C@H](C)O4)[C@H](C)O3)C(C)/C=C/C=C3\CO[C@@H]4[C@H](O)C(C)=C[C@@H](C(=O)O1)[C@]34O)O2 (stereo partly drawn) [2.007]
more than 80%: all assays above

CCC(C)[C@H]1O[C@]2(C=C[C@@H]1C)C[C@@H]1C[C@@H](C/C=C(\C)[C@@H](O[C@H]3C[C@H](OC)[C@@H](O[C@H]4C[C@H](OC)[C@H](N(C)CC(=O)OCc5ccc([N+](=O)[O-])cc5)[C@H](C)O4)[C@H](C)O3)C(C)/C=C/C=C3\CO[C@@H]4[C@H](O)C(C)=C[C@@H](C(=O)O1)[C@]34O)O2 (stereo partly drawn) [2.018]
more than 80%: all assays above

CCC(C)C1OC2(C=CC1C)CC1CC(CC=C(C)C(OC3CC(OC)C(OC4CC(OC)C(N(C)CC(=O)OCCOC)C(C)O4)C(C)O3)C(C)C=CC=C3COC4C(O)C(C)=CC(C(=O)O1)C34O)O2 (stereo not drawn) [2.034]
more than 80%: all assays above

CCC(C)[C@H]1O[C@]2(C=C[C@@H]1C)C[C@@H]1C[C@@H](C/C=C(\C)[C@@H](O[C@H]3C[C@H](OC)[C@@H](O[C@H]4C[C@H](OC)[C@H](N(C)CC(N)=O)[C@H](C)O4)[C@H](C)O3)C(C)/C=C/C=C3\CO[C@@H]4[C@H](O)C(C)=C[C@@H](C(=O)O1)[C@]34O)O2 (stereo partly drawn) [2.017]
more than 80%: all assays above

CCC(C)[C@H]1O[C@]2(C=C[C@@H]1C)C[C@@H]1C[C@@H](C/C=C(\C)[C@@H](O[C@H]3C[C@H](OC)[C@@H](O[C@H]4C[C@H](OC)[C@H](N(C)Cc5cccc(C(F)(F)F)c5)[C@H](C)O4)[C@H](C)O3)C(C)/C=C/C=C3\CO[C@@H]4[C@H](O)C(C)=C[C@@H](C(=O)O1)[C@]34O)O2 (stereo partly drawn) [2.013]
more than 80%: all assays above

CCOC(=O)/C=C/CN(C)[C@@H]1[C@H](C)O[C@@H](O[C@H]2[C@H](C)O[C@@H](O[C@@H]3/C(C)=C/C[C@@H]4C[C@@H](C[C@]5(C=C[C@H](C)[C@@H](C(C)CC)O5)O4)OC(=O)[C@@H]4C=C(C)[C@@H](O)[C@H]5OC/C(=C\C=C\C3C)[C@]54O)C[C@@H]2OC)C[C@@H]1OC (stereo partly drawn) [2.014]
more than 80%: all assays above

CCNC1C(C)OC(OC2C(C)OC(OC3C(C)=CCC4CC(CC5(C=CC(C)C(C(C)CC)O5)O4)OC(=O)C4C=C(C)C(O)C5OCC(=CC=CC3C)C45O)CC2OC)CC1OC (stereo not drawn) [1.027]
more than 80%: all assays above

CCC(C)C1OC2(C=CC1C)CC1CC(CC=C(C)C(OC3CC(OC)C(OC4CC(OC)C(NC(COC)CC(=O)OC)C(C)O4)C(C)O3)C(C)C=CC=C3COC4C(O)C(C)=CC(C(=O)O1)C34O)O2 (stereo not drawn) [1.082]
more than 80%: all assays above
